The exact form of at least one protein or probe is not confirmed. No signal at the amounts used counts as a negative.
Tested on: Iron-responsive protein (IRP)
Assay: activity in cells
Details: IRP does not inducibly repress 5-1.2 reporter in yeast (NS), protein details: expressed in S. cerevisiae, variant of 5-1.13, dose not given here

For “GGAUCCAGGCAGAGAAAGGUCGAUACGGACGGAAUGUGAUGGCCUGGAUCC [5-1.2]”, the “functional effect of the aptamer” value was “not active”.

From patent US20110245326
